PubChem BioAssay AID504791, Drosophila RNAi Screening Center – 2011
Test: 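Genes of the fly required for silencing by miRNA, siRNA or endo-siRNA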 (primary screen). System: Drosophila S2-derived reporter cells. Knock-down reagent: long dsRNA against Drosophila genes, about 150-250 ng dsRNA per well (siRNA assay); about 80-120 ng (miRNA assay). Time to read-out: about 5 days (siRNA assay); about 4 days (miRNA assay). Challenge: copper sulfate induction of reporters: 25 µM (siRNA assay); 200 mM stated (miRNA assay), 1-2 days before reading. Read-out: 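Dual luciferase assay: Renilla to firefly signal ratio in each well, scaled to the mean ratio of its plate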. Rule for the call: 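a well was a first-pass pick when its plate-scaled ratio rose above 1.5 (siRNA assay) or 1.6 (miRNA assay), or dropped below 0.6; a gene counted only if two separate dsRNAs agreed on retest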.
The screen tested about 23,000 reagents; shown is a random part of those with a known target gene and a result. In the full data, 199 (0.86%) are marked active. 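Plate-scaled ratios behind the calls are not deposited; printed light signals are raw; many rows marked increased or decreased are still called inactive.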 Names joined by + are all predicted targets of the reagent. No sequences are given here. Not given: the direction of the score.

Target gene | amplicon | stable siRNA reporter change | miRNA reporter change | stable assay Renilla, run 1 (luminescence) | stable assay firefly, run 1 (luminescence) | Outcome
CG32021 (retired record) | DRSC17206 | – | – | 5653 | 4.47e5 | inactive
CG32021 (retired record) | DRSC23926 | – | reporter ratio lowered past the hit cutoff | – | – | active
Cyt-c-d (Cytochrome c distal) | DRSC03309 | – | – | 6790 | 5.36e5 | inactive
E(bx) (Enhancer of bithorax) | DRSC08172 | – | – | 7283 | 4.67e5 | inactive
E(bx) (Enhancer of bithorax) | DRSC08509 | reporter ratio raised past the hit cutoff | reporter ratio raised past the hit cutoff | 11672 | 2.54e5 | active
E(bx) (Enhancer of bithorax) | DRSC08583 | reporter ratio raised past the hit cutoff | reporter ratio raised past the hit cutoff | 20973 | 3.13e5 | active
Grx5 (Glutaredoxin 5) | DRSC19593 | – | – | 5152 | 4.73e5 | inactive
CG30496 | DRSC06805 | – | – | 8946 | 4.53e5 | inactive
Vps16B (Vacuolar protein sorting 16B) | DRSC15304 | – | – | 5602 | 2.93e5 | inactive
unpg (unplugged) | DRSC07713 | – | – | 6396 | 3.57e5 | inactive
sncRNA:430e + His2A:CG33859 + His2A:CG33817 + 42 more | DRSC25850 | – | reporter ratio raised past the hit cutoff | – | – | inactive
alph (alphabet) | DRSC15398 | – | – | 9119 | 5.41e5 | inactive
tpr (tracheal-prostasin) | DRSC04468 | – | – | 37688 | 4.77e5 | inactive
CG31735 | DRSC01518 | – | – | 5696 | 4.58e5 | inactive
GstE12 (Glutathione S transferase E12) | DRSC04047 | – | – | 7819 | 4.19e5 | inactive
l(1)G0469 (lethal (1) G0469) | DRSC19412 | – | – | 8250 | 6.71e5 | inactive
l(1)G0469 (lethal (1) G0469) | DRSC19462 | – | – | 5371 | 4.34e5 | inactive
Zmynd10 (Zinc finger MYND-type containing 10) | DRSC09826 | – | – | 5811 | 3.98e5 | inactive
FMRFaR (FMRFamide Receptor) | DRSC08555 | – | – | 6480 | 2.98e5 | inactive
CG10918 | DRSC20472 | – | – | 5971 | 4.96e5 | inactive
Taf10b + Taf10 | DRSC00793 | – | – | 8078 | 5.32e5 | inactive
MICU1 (Mitochondrial calcium uptake 1) | DRSC02752 | – | – | 8857 | 3.03e5 | inactive
Men (Malic enzyme) | DRSC12924 | – | – | 3639 | 4.09e5 | inactive
Men (Malic enzyme) | DRSC16738 | – | – | 4011 | 3.01e5 | inactive
Men (Malic enzyme) | DRSC22694 | – | – | 5551 | 5.20e5 | inactive
CG12929 | DRSC06242 | – | – | 5962 | 3.62e5 | inactive
CG11790 | DRSC14390 | – | – | 12256 | 4.52e5 | inactive
CG12498 | DRSC18635 | – | – | 6599 | 3.79e5 | inactive
TTLL4B (Tubulin tyrosine ligase-like 4B) | DRSC00636 | – | – | 27675 | 1.69e5 | inactive
TTLL4B (Tubulin tyrosine ligase-like 4B) | DRSC28854 | – | reporter ratio lowered past the hit cutoff | – | – | inactive
CG32582 (retired record) | DRSC19114 | – | – | 5179 | 3.78e5 | inactive
MnM (myomesin and myosin binding protein) | DRSC08423 | – | – | 6118 | 3.83e5 | inactive
Mpcp1 | DRSC07337 | – | – | 5799 | 3.72e5 | inactive
CG34210 | DRSC04579 | – | – | 6128 | 3.72e5 | inactive
CG14126 (retired record) | DRSC10130 | – | – | 5751 | 3.42e5 | inactive
CG31789 | DRSC01645 | – | – | 5531 | 4.38e5 | inactive
RhoGEF4 (Rho guanine nucleotide exchange factor 4) | DRSC11011 | – | – | 7170 | 3.38e5 | inactive
Mef2 (Myocyte enhancer factor 2) | DRSC07468 | – | – | 7318 | 3.61e5 | inactive
comm (commissureless) | DRSC11336 | – | – | 9032 | 5.00e5 | inactive
Ube3a (Ubiquitin protein ligase E3A) | DRSC10600 | – | – | 7128 | 4.35e5 | inactive
RpL24 (Ribosomal protein L24) | DRSC03185 | – | – | 6734 | 3.28e5 | inactive
cue (cueball) | DRSC08248 | – | – | 11124 | 6.40e5 | inactive
Tsf2 (Transferrin 2) | DRSC09751 | – | – | 7522 | 3.78e5 | inactive
PDZ-GEF (PDZ domain-containing guanine nucleotide exchange factor) | DRSC03231 | – | – | 6654 | 4.77e5 | inactive
IM33 (Immune induced molecule 33) | DRSC00476 | – | – | 8001 | 5.18e5 | inactive
Cyp305a1 (Cytochrome P450 305a1) | DRSC11126 | – | – | 7651 | 3.44e5 | inactive
Mst98Cb (Male-specific RNA 98Cb) | DRSC16750 | – | – | 4515 | 3.38e5 | inactive
Mst98Cb (Male-specific RNA 98Cb) | DRSC22495 | reporter ratio lowered past the hit cutoff | – | 2012 | 3.29e5 | inactive
CG8671 | DRSC03102 | – | – | 6599 | 3.19e5 | inactive
CG8671 | DRSC03103 | – | – | 7350 | 3.17e5 | inactive
CG8026 | DRSC07055 | – | – | 5071 | 5.22e5 | inactive
CG8026 | DRSC07056 | – | – | 6640 | 4.35e5 | inactive
CG15642 | DRSC19678 | – | – | 5407 | 4.02e5 | inactive
RluA-2 (RluA pseudouridine synthase 2) | DRSC02939 | – | – | 21078 | 1.30e6 | inactive
CG4907 | DRSC15673 | – | – | 6328 | 3.37e5 | inactive
fwe (flower) | DRSC09398 | – | – | 5779 | 3.53e5 | inactive
fwe (flower) | DRSC10594 | – | – | 8966 | 3.85e5 | inactive
fwe (flower) | DRSC21400 | – | – | 10682 | 4.62e5 | inactive

A few values from above:
Value of Grx5 (Glutaredoxin 5) [DRSC19593] under “stable assay firefly, run 1 (luminescence)”: 4.73e5
Result for cue (cueball) [DRSC08248] in “Outcome”: inactive
CG8671 [DRSC03102], stable assay Renilla, run 1 (luminescence): 6599
Under “Outcome”, IM33 (Immune induced molecule 33) [DRSC00476] has inactive
Under “Outcome”, CG8026 [DRSC07055] is entered as inactive
